Some of the results follow.

By UniProt entry, the sequences of proteins in these tests, tags left out.
UniProt Q0JBA9, entry or part of it: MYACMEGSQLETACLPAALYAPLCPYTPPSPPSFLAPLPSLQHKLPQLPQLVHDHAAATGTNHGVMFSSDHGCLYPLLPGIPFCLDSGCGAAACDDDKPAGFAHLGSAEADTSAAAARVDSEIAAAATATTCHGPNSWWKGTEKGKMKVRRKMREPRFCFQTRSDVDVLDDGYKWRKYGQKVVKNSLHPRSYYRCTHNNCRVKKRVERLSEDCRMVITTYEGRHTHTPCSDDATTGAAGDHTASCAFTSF

The target in the assay is OsWRKY34 (Oryza sativa, UniProt Q0JBA9 1-250). Description: protein-binding microarray (RPBM); PBS, 2% BSA, 51.3 ng/ul salmon testes DNA, 50 uM zinc acetate, 200 nM TF, 25 C, 1 h; high values mean tight binding. Conditions: protein: recombinant; tags: N-terminal polyhistidine and DsRed monomer fusion (pET32a); label: CyDye5-dUTP incorporated in the synthesized complementary strand; 3' TTTTT single-stranded linker to array surface; dsDNA, one strand shown. The essentials: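 Polyhistidine-tagged DsRed fusions of transcription factors, joined at the N-terminus, were expressed in E. coli BL21-CodonPlus and isolated on Ni–NTA. They were incubated at 200 nM for 1 h at 25 °C on a custom Agilent array, double-stranded and BSA-blocked, in PBS with 2% BSA, salmon testes DNA and 50 µM zinc acetate. The binding signal is per-feature fluorescence intensity (arbitrary units) read on an Axon 4000B scanner after washing.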
In the case of “ACGCCCGCTCTACTGTCGAAGTATATAAAGTTCATTTCTCCGGAGTCACCTAGTGCAG”, the binding signal was 8100 fluorescence intensity (a.u.).

With “GGCATATTTTCTAGTAAATCAAAATAACTGTTAGGGAGGGCGGAGTCACCTAGTGCAG”, the binding signal was 9760 fluorescence intensity (a.u.).

For “CTCCTCTACTACCACCGCCGCTCTCGTCTCGTCTCGTCTCCGGAGTCACCTAGTGCAG”, the binding signal is 11800 fluorescence intensity (a.u.).

As for “TTTCCGGTTTTCCAATATTTCCGATACCATTTTCATTTCCCGGAGTCACCTAGTGCAG”, the binding signal was 12800 fluorescence intensity (a.u.).

As for “TTACCATGGTGCATTTACGGCTGTGATCGCTTTGTTGTACCGGAGTCACCTAGTGCAG”, the binding signal is 9370 fluorescence intensity (a.u.).

Consider “TGCCTTGATCTCCCACCACTGCCTCAATTTTCACCTACTCCGGAGTCACCTAGTGCAG”, for which the binding signal was 8120 fluorescence intensity (a.u.).

On to “AATCCTATTTTTTTCTATTCGTACTATTCAAAGGTGCTCTCGGAGTCACCTAGTGCAG”, for which the binding signal is 9740 fluorescence intensity (a.u.).

In the case of “CTAGCAATCCTACCGGTGAAATCATCCCATCCCATCTCATCGGAGTCACCTAGTGCAG”, the binding signal is 8390 fluorescence intensity (a.u.).

For “GCCCATTATAAAAGTATTGTATGCGCACGATCGTCCTCTCCGGAGTCACCTAGTGCAG”, the binding signal is 9100 fluorescence intensity (a.u.).

Regarding “ATGGCAAGTCTAGCTGTCCTTTTTTTTTTTTTTACAATTCCGGAGTCACCTAGTGCAG”, the binding signal was 8770 fluorescence intensity (a.u.).

Regarding “TATCCTTCTACCCATTAGGACAACACAATGACCATTAACACGGAGTCACCTAGTGCAG”, the binding signal is 8620 fluorescence intensity (a.u.).

Consider “GGGTTGACCATAACCTAAGCTGGTCAAAACTGTTCTTCTGCGGAGTCACCTAGTGCAG”, for which the binding signal is 11200 fluorescence intensity (a.u.).

Take “CCCATGCCGCCGCCGTCGCCGTGATACGTGGGAGCGGCACCGGAGTCACCTAGTGCAG”: the binding signal is 8090 fluorescence intensity (a.u.).

For the sequence “ATTTTTGTCACCGTCGTTATTGTGGAGAGCTTTTTATGTTCGGAGTCACCTAGTGCAG”, the binding signal was 12300 fluorescence intensity (a.u.).

With “TCAGTGTTACTACTACTTTCCCACCTTGCCCTCACTACCTCGGAGTCACCTAGTGCAG”, the binding signal was 9200 fluorescence intensity (a.u.).

In the case of “GGCGGTTTGGTTTGTTCTCTCTCGGTCGTCGTCGGCGGCACGGAGTCACCTAGTGCAG”, the binding signal is 10400 fluorescence intensity (a.u.).

“TAATCGGTCATCTACTTCAACATCTACTCGTAAATCCTCTCGGAGTCACCTAGTGCAG”: the binding signal was 9650 fluorescence intensity (a.u.).

Take “TTTGTCTATCGTTTCCTAACCTTATCAACTCCGGCCCTTGCGGAGTCACCTAGTGCAG”: the binding signal was 9070 fluorescence intensity (a.u.).

Take “TTTTTCCGGTGACTTTCTCAGTGGTCAAGAGCTTTGTTTTCGGAGTCACCTAGTGCAG”: the binding signal is 11500 fluorescence intensity (a.u.).

As for “TGGGTCCCACTACTTTTTTCTTTTGCCTTACTGACATATGCGGAGTCACCTAGTGCAG”, the binding signal was 8150 fluorescence intensity (a.u.).

Turning to “CCCAAATTTCGGGTTCTTGATCTACATGTAGCTACCAATTCGGAGTCACCTAGTGCAG”, the binding signal is 8900 fluorescence intensity (a.u.).

Take “TGGTCTTCTAAGTTTCATTCTGCATGGTTATATGGATTTTCGGAGTCACCTAGTGCAG”: the binding signal was 11300 fluorescence intensity (a.u.).

“GAGCTGATCTTGTTGACTTATTGAACGAAACTCTACACAGCGGAGTCACCTAGTGCAG”: the binding signal was 10100 fluorescence intensity (a.u.).

For “ATGTATGTATGTATAGGTTATTCAGTCTCTTTCTTTGCAACGGAGTCACCTAGTGCAG”, the binding signal is 8630 fluorescence intensity (a.u.).

Consider “ATGTTCATATGAGGATCCACACGTCAATCCACGTCTCTTCCGGAGTCACCTAGTGCAG”, for which the binding signal was 8120 fluorescence intensity (a.u.).

On to “TGGTTCTCGCTTTTCGCCGCTTCCTATCCGAAGTGCTTTTCGGAGTCACCTAGTGCAG”, for which the binding signal was 9080 fluorescence intensity (a.u.).

As to “CTGCACCTAAAGCCTTTCAGAAAACTTTTCACCCTGTCAACGGAGTCACCTAGTGCAG”, the binding signal is 8740 fluorescence intensity (a.u.).

Take “TACACTCACTACCAATCCACTACTCTCTTTCTCTTATTTCCGGAGTCACCTAGTGCAG”: the binding signal was 8770 fluorescence intensity (a.u.).

Turning to “TGGTGGTGCTAATGTGCTTTTTTGTGGGTGGCTGCATTACCGGAGTCACCTAGTGCAG”, the binding signal is 8190 fluorescence intensity (a.u.).

Take “GTAGCATTCGTTTTTTTTTTTCTTTTGTTCTTTCAAAAATCGGAGTCACCTAGTGCAG”: the binding signal was 10400 fluorescence intensity (a.u.).

In the case of “TCCGTACCGTTTTCACCCCTACCTGTTAGATGTTGCATAACGGAGTCACCTAGTGCAG”, the binding signal is 10500 fluorescence intensity (a.u.).

Take “ATCTTTTTATCGTTTCATTGATTGATGACGACTCCAAGTTCGGAGTCACCTAGTGCAG”: the binding signal was 8600 fluorescence intensity (a.u.).

In the case of “AATTTAGGCTATTTTGGCTTCAATCCAAACACAATTTTTCCGGAGTCACCTAGTGCAG”, the binding signal was 10100 fluorescence intensity (a.u.).

In the case of “GGAGGGAGGGATAGCGTAGAGGGAGAGGGAACAGGGGAGGCGGAGTCACCTAGTGCAG”, the binding signal is 8640 fluorescence intensity (a.u.).

In the case of “GTGTATTTGTTTCTTTGTCAGCTTGTACATGAATACCGGCCGGAGTCACCTAGTGCAG”, the binding signal was 10800 fluorescence intensity (a.u.).

For “ACAATTGCCTATTATCTGGTCCCACATGTCATGCACACATCGGAGTCACCTAGTGCAG”, the binding signal is 8620 fluorescence intensity (a.u.).

For “ATCCTCGGCCTCCGTCTTCCCTCGGCAAGGTTTTCATCCACGGAGTCACCTAGTGCAG”, the binding signal was 8740 fluorescence intensity (a.u.).

For “GATTTATTGTACTATAATATATCACATCTAGTTGGTTTTTCGGAGTCACCTAGTGCAG”, the binding signal is 8130 fluorescence intensity (a.u.).

For “TCTCTCTTCTCTTCTCTCATCACTCACCATCTTCTTGTCTCGGAGTCACCTAGTGCAG”, the binding signal is 8370 fluorescence intensity (a.u.).

Take “CCTCTCATCGCCGCGGTTTCTTTCCCGTTGTTGTGAAAAGCGGAGTCACCTAGTGCAG”: the binding signal is 9570 fluorescence intensity (a.u.).

As to “CCGGCTCCGGCTCATCTCCACCTCCTCCCGCCGCGCCAGCCGGAGTCACCTAGTGCAG”, the binding signal is 8300 fluorescence intensity (a.u.).

As for “TATTTCACCACATCGTTTTTTTCTTTTTGTCAAAGGGCATCGGAGTCACCTAGTGCAG”, the binding signal was 8680 fluorescence intensity (a.u.).

(Values after paper PMC7819943, “Rice protein-binding microarrays: a tool to detect cis-acting elements near promoter regions in rice”.)
